{"source": "patent US20100113421A1", "about": "“NON-NUCLEOSIDE REVERSE TRANSCRIPTASE INHIBITORS” (priority 2006, published 2010)", "note": "Some of these results come from one statement about several compounds together.", "data": [{"tested_on": "T-lymphoid cells", "test": "Cytotoxicity by microscopic examination of cells in the spread assay", "format": "cell-based", "conditions": "no cytotoxicity at concentrations of up to 8 micromolar; spread assay cultures", "units": {"cytotoxicity (lowest concentration at which a morphological change is observed)": "micromolar"}, "values": [{"smiles": "Cc1c(C(=O)N(C)Cc2ccc(Cl)cc2Cl)[nH]c(C(N)=O)c1S(=O)(=O)c1ccccc1", "note": "[Example 1, N-(2,4-Dichlorobenzyl)-N,3-dimethyl-4-(1-phenylsulfonyl)-1H-pyrrole-2,5-dicarboxamide]", "cytotoxicity (lowest concentration at which a morphological change is observed)": "> 8"}, {"smiles": "Cc1c(C(=O)N(C)Cc2ccc(Cl)cc2Cl)[nH]c(C(N)=O)c1S(=O)(=O)c1cc(Cl)cc(Cl)c1", "note": "[Example 2, N-(2,4-Dichlorobenzyl)-4-[(3,5-dichlorophenyl)sulfonyl]-N,3-dimethyl-1H-pyrrole-2,5-dicarboxamide]", "cytotoxicity (lowest concentration at which a morphological change is observed)": "> 8"}, {"smiles": "Cc1cc(C)cc(S(=O)(=O)c2c(C(N)=O)[nH]c(C(=O)N(C)Cc3ccccc3)c2C)c1", "note": "[Example 3, N-Benzyl-N,3-dimethyl-4-(3,5-dimethylphenylsulfonyl)-1H-pyrrole-2,5-dicarboxamide]", "cytotoxicity (lowest concentration at which a morphological change is observed)": "> 8"}, {"smiles": "Cc1c(C(=O)N(C)Cc2ccc(F)cc2Cl)[nH]c(C(N)=O)c1S(=O)(=O)c1ccccc1", "note": "[Example 4, N-(2-Chloro-4-fluorobenzyl)-N,3-dimethyl-4-(phenylsulfonyl)-1H-pyrrole-2,5-dicarboxamide]", "cytotoxicity (lowest concentration at which a morphological change is observed)": "> 8"}, {"smiles": "Cc1c(C(=O)N(C)Cc2ccccc2Cl)[nH]c(C(N)=O)c1S(=O)(=O)c1cccc2ccccc12", "note": "[Example 5, N-(2-Chlorobenzyl)-N,3-dimethyl-4-(1-naphthylsulfonyl)-1H-pyrrole-2,5-dicarboxamide]", "cytotoxicity (lowest concentration at which a morphological change is observed)": "> 8"}, {"smiles": "Cc1c(C(=O)N(C)Cc2ccccc2Cl)[nH]c(C(N)=O)c1S(=O)(=O)c1ccc2ccccc2c1", "note": "[Example 6, N-(2-Chlorobenzyl)-N,3-dimethyl-4-(2-naphthylsulfonyl)-1H-pyrrole-2,5-dicarboxamide]", "cytotoxicity (lowest concentration at which a morphological change is observed)": "> 8"}, {"smiles": "Cc1c(C(=O)N(C)Cc2ccccc2F)[nH]c(C(N)=O)c1S(=O)(=O)c1ccccc1", "note": "[Example 7, N-(2-fluorobenzyl)-N,3-dimethyl-4-(phenylsulfonyl)-1H-pyrrole-2,5-dicarboxamide]", "cytotoxicity (lowest concentration at which a morphological change is observed)": "> 8"}, {"smiles": "Cc1c(C(=O)N(C)Cc2ccccc2Cl)[nH]c(C(N)=O)c1S(=O)(=O)c1ccccc1", "note": "[Example 8, N-(2-chlorobenzyl)-N,3-dimethyl-4-(phenylsulfonyl)-1H-pyrrole-2,5-dicarboxamide]", "cytotoxicity (lowest concentration at which a morphological change is observed)": "> 8"}, {"smiles": "Cc1c(C(=O)N(C)Cc2ccccc2Br)[nH]c(C(N)=O)c1S(=O)(=O)c1ccccc1", "note": "[Example 9, N-(2-bromobenzyl)-N,3-dimethyl-4-(phenylsulfonyl)-1H-pyrrole-2,5-dicarboxamide]", "cytotoxicity (lowest concentration at which a morphological change is observed)": "> 8"}, {"smiles": "Cc1c(C(=O)N(C)Cc2cccc(Cl)c2)[nH]c(C(N)=O)c1S(=O)(=O)c1ccccc1", "note": "[Example 10, N-(3-chlorobenzyl)-N,3-dimethyl-4-(phenylsulfonyl)-1H-pyrrole-2,5-dicarboxamide]", "cytotoxicity (lowest concentration at which a morphological change is observed)": "> 8"}, {"smiles": "Cc1c(C(=O)N(C)Cc2ccc(Br)cc2)[nH]c(C(N)=O)c1S(=O)(=O)c1ccccc1", "note": "[Example 11, N-(4-bromobenzyl)-N,3-dimethyl-4-(phenylsulfonyl)-1H-pyrrole-2,5-dicarboxamide]", "cytotoxicity (lowest concentration at which a morphological change is observed)": "> 8"}, {"smiles": "Cc1c(C(=O)N(C)Cc2ccc(Cl)cc2F)[nH]c(C(N)=O)c1S(=O)(=O)c1ccccc1", "note": "[Example 12, N-(4-chloro-2-fluorobenzyl)-N,3-dimethyl-4-(phenylsulfonyl)-1H-pyrrole-2,5-dicarboxamide]", "cytotoxicity (lowest concentration at which a morphological change is observed)": "> 8"}, {"smiles": "Cc1c(C(=O)N(C)Cc2cccc(Cl)c2Cl)[nH]c(C(N)=O)c1S(=O)(=O)c1ccccc1", "note": "[Example 13, N-(2,3-dichlorobenzyl)-N,3-dimethyl-4-(phenylsulfonyl)-1H-pyrrole-2,5-dicarboxamide]", "cytotoxicity (lowest concentration at which a morphological change is observed)": "> 8"}, {"smiles": "Cc1c(C(=O)N(C)Cc2ccc(Cl)c(Cl)c2)[nH]c(C(N)=O)c1S(=O)(=O)c1ccccc1", "note": "[Example 14, N-(3,4-dichlorobenzyl)-N,3-dimethyl-4-(phenylsulfonyl)-1H-pyrrole-2,5-dicarboxamide]", "cytotoxicity (lowest concentration at which a morphological change is observed)": "> 8"}, {"smiles": "Cc1c(C(=O)N(C)Cc2ccc(S(C)(=O)=O)cc2Cl)[nH]c(C(N)=O)c1S(=O)(=O)c1ccccc1", "note": "[Example 15, N-(2-chloro-4-methylsulfonylbenzyl)-N,3-dimethyl-4-(phenylsulfonyl)-1H-pyrrole-2,5-dicarboxamide]", "cytotoxicity (lowest concentration at which a morphological change is observed)": "> 8"}, {"smiles": "Cc1c(C(=O)N(C)Cc2ccccc2F)[nH]c(C(N)=O)c1S(=O)(=O)c1cccc(F)c1", "note": "[Example 16, N-(2-fluorobenzyl)-N,3-dimethyl-4-(3-fluorophenylsulfonyl)-1H-pyrrole-2,5-dicarboxamide]", "cytotoxicity (lowest concentration at which a morphological change is observed)": "> 8"}, {"smiles": "Cc1c(C(=O)N(C)Cc2ccccc2Cl)[nH]c(C(N)=O)c1S(=O)(=O)c1cccc(F)c1", "note": "[Example 17, N-(2-chlorobenzyl)-N,3-dimethyl-4-(3-fluorophenylsulfonyl)-1H-pyrrole-2,5-dicarboxamide]", "cytotoxicity (lowest concentration at which a morphological change is observed)": "> 8"}, {"smiles": "Cc1c(C(=O)N(C)Cc2ccc(Cl)cc2F)[nH]c(C(N)=O)c1S(=O)(=O)c1cccc(F)c1", "note": "[Example 18, N-(4-chloro-2-fluorobenzyl)-N,3-dimethyl-4-(3-fluorophenylsulfonyl)-1H-pyrrole-2,5-dicarboxamide]", "cytotoxicity (lowest concentration at which a morphological change is observed)": "> 8"}, {"smiles": "Cc1c(C(=O)N(C)Cc2ccc(Cl)cc2Cl)[nH]c(C(N)=O)c1S(=O)(=O)c1cccc(F)c1", "note": "[Example 19, N-(2,4-dichlorobenzyl)-N,3-dimethyl-4-(3-fluorophenylsulfonyl)-1H-pyrrole-2,5-dicarboxamide]", "cytotoxicity (lowest concentration at which a morphological change is observed)": "> 8"}, {"smiles": "Cc1c(C(=O)N(C)Cc2ccccc2Cl)[nH]c(C(N)=O)c1S(=O)(=O)c1cccc(Cl)c1", "note": "[Example 20, N-(2-chlorobenzyl)-N,3-dimethyl-4-(3-chlorophenylsulfonyl)-1H-pyrrole-2,5-dicarboxamide]", "cytotoxicity (lowest concentration at which a morphological change is observed)": "> 8"}, {"smiles": "Cc1c(C(=O)N(C)Cc2ccc(Cl)cc2Cl)[nH]c(C(N)=O)c1S(=O)(=O)c1cccc(Cl)c1", "note": "[Example 21, N-(2,4-dichlorobenzyl)-N,3-dimethyl-4-(3-chlorophenylsulfonyl)-1H-pyrrole-2,5-dicarboxamide]", "cytotoxicity (lowest concentration at which a morphological change is observed)": "> 8"}, {"smiles": "Cc1c(C(=O)N(C)Cc2ccccc2)[nH]c(C(N)=O)c1S(=O)(=O)c1cccc(C(F)(F)F)c1", "note": "[Example 22, N-benzyl-N,3-dimethyl-4-(3-trifluoromethylphenylsulfonyl)-1H-pyrrole-2,5-dicarboxamide]", "cytotoxicity (lowest concentration at which a morphological change is observed)": "> 8"}, {"smiles": "Cc1c(C(=O)N(C)Cc2ccc(Cl)cc2Cl)[nH]c(C(N)=O)c1S(=O)(=O)c1cccc(C(F)(F)F)c1", "note": "[Example 23, N-(2,4-dichlorobenzyl)-N,3-dimethyl-4-(3-trifluoromethylphenylsulfonyl)-1H-pyrrole-2,5-dicarboxamide]", "cytotoxicity (lowest concentration at which a morphological change is observed)": "> 8"}, {"smiles": "Cc1cc(C)cc(S(=O)(=O)c2c(C(N)=O)[nH]c(C(=O)N(C)Cc3ccccc3F)c2C)c1", "note": "[Example 24, N-(2-fluorobenzyl)-N,3-dimethyl-4-(3,5-dimethylphenylsulfonyl)-1H-pyrrole-2,5-dicarboxamide]", "cytotoxicity (lowest concentration at which a morphological change is observed)": "> 8"}, {"smiles": "Cc1cc(C)cc(S(=O)(=O)c2c(C(N)=O)[nH]c(C(=O)N(C)Cc3ccccc3Cl)c2C)c1", "note": "[Example 25, N-(2-chlorobenzyl)-N,3-dimethyl-4-(3,5-dimethyiphenylsulfonyl)-1H-pyrrole-2,5-dicarboxamide]", "cytotoxicity (lowest concentration at which a morphological change is observed)": "> 8"}, {"smiles": "Cc1cc(C)cc(S(=O)(=O)c2c(C(N)=O)[nH]c(C(=O)N(C)Cc3ccc(Cl)cc3F)c2C)c1", "note": "[Example 26, N-(4-chloro-2-fluorobenzyl)-N,3-dimethyl-4-(3,5-dimethylphenylsulfonyl)-1H-pyrrole-2,5-dicarboxamide]", "cytotoxicity (lowest concentration at which a morphological change is observed)": "> 8"}, {"smiles": "Cc1cc(C)cc(S(=O)(=O)c2c(C(N)=O)[nH]c(C(=O)N(C)Cc3ccc(Cl)cc3Cl)c2C)c1", "note": "[Example 27, N-(2,4-dichlorobenzyl)-N,3-dimethyl-4-(3,5-dimethylphenylsulfonyl)-1H-pyrrole-2,5-dicarboxamide]", "cytotoxicity (lowest concentration at which a morphological change is observed)": "> 8"}, {"smiles": "Cc1c(C(=O)N(C)Cc2ccccc2)[nH]c(C(N)=O)c1S(=O)(=O)c1cc(F)cc(Cl)c1", "note": "[Example 28, N-benzyl-N,3-dimethyl-4-(3-chloro-5-fluorophenylsulfonyl)-1H-pyrrole-2,5-dicarboxamide]", "cytotoxicity (lowest concentration at which a morphological change is observed)": "> 8"}, {"smiles": "Cc1c(C(=O)N(C)Cc2ccccc2F)[nH]c(C(N)=O)c1S(=O)(=O)c1cc(F)cc(Cl)c1", "note": "[Example 29, N-(2-fluorobenzyl)-N,3-dimethyl-4-(3-chloro-5-fluorophenylsulfonyl)-1H-pyrrole-2,5-dicarboxamide]", "cytotoxicity (lowest concentration at which a morphological change is observed)": "> 8"}, {"smiles": "Cc1c(C(=O)N(C)Cc2ccccc2Cl)[nH]c(C(N)=O)c1S(=O)(=O)c1cc(F)cc(Cl)c1", "note": "[Example 30, N-(2-chlorobenzyl)-N,3-dimethyl-4-(3-chloro-5-fluorophenylsulfonyl)-1H-pyrrole-2,5-dicarboxamide]", "cytotoxicity (lowest concentration at which a morphological change is observed)": "> 8"}, {"smiles": "Cc1c(C(=O)N(C)Cc2ccc(Cl)cc2F)[nH]c(C(N)=O)c1S(=O)(=O)c1cc(F)cc(Cl)c1", "note": "[Example 31, N-(4-chloro-2-fluorobenzyl)-N,3-dimethyl-4-(3-chloro-5-fluorophenylsulfonyl)-1H-pyrrole-2,5-dicarboxamide]", "cytotoxicity (lowest concentration at which a morphological change is observed)": "> 8"}, {"smiles": "Cc1c(C(=O)N(C)Cc2ccccc2)[nH]c(C(N)=O)c1S(=O)(=O)c1cc(Cl)cc(Cl)c1", "note": "[Example 32, N-benzyl-N,3-dimethyl-4-(3,5-dichlorophenylsulfonyl)-1H-pyrrole-2,5-dicarboxamide]", "cytotoxicity (lowest concentration at which a morphological change is observed)": "> 8"}]}]}
